No constants are given. Whether binding was seen depends on the method and setting. Some entries that bind do so weakly or less than the wild type.
Biological target: A1 domain of tenascin-C (TNC-A1) (UniProt P24821)
Assay: real-time interaction analysis, BIAcore 3000

The chains behind the UniProt entries cited, without tags or fusion partners. Residues count along the entry.
UniProt P24821, residues 1073-1163: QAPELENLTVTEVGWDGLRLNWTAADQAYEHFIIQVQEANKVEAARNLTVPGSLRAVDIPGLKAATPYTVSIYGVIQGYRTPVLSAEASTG

B1: F16 human monoclonal antibody (original clone 4A1-F16) (antibody, V domains shown)
VH: EVQLLESGGGLVQPGGSLRLSCAASGFTFSRYGASWVRQAPGKGLEWVSAISGSGGSTYYADSVKGRFTISRDNSKNTLYLQMNSLRAEDTAVYYCAKAHNAFDYWGQGTLVTVSR
VL: SSELTQDPAVSVALGQTVRITCQGDSLRSYYASWYQQKPGQAPVLVIYGKNNRPSGIPDRFSGSSSGNTASLTITGAQAEDEADYYCNSSVYTMPPVVFGGGTKLTVL
binding: binds

— patent US20110250170A1 (PHILOGEN S P A, published 2011)
